PMC4136701, “A Conserved Cysteine Residue of Bacillus subtilis SpoIIIJ Is Important for Endospore Development” (PLoS ONE, 2014)
No constants are given. Whether binding was seen depends on the method and setting. Sequences can lack the tags named with a protein.

Molecular target: truncated SpoIIIJ-His6 starting at L122 (fragment "c", lacking TM1) (Bacillus subtilis) (UniProt Q01625)
Experiment: SDS-PAGE with or without reducing agent; purified protein in loading buffer with (100 mM) or without DTT; Coomassie staining or immunoblot with anti-His6; bands a and b cut out and run again; both purified

B1: truncated SpoIIIJ-His6 starting at L122 (fragment "c", lacking TM1) (domain or fragment, Bacillus subtilis, UniProt Q01625 122-261, looked up)
chain: LFQKHGVNPLAGCFPILIQMPILIGFYHAIMRTQAISEHSFLWFDLGEKDPYYILPIVAGVATFVQQKLMMAGNAQQNPQMAMMLWIMPIMIIVFAINFPAALSLYWVVGNLFMIAQTFLIKGPDIKKNPEPQKAGGKKK
notes: SpoIIIJ, Bacillus subtilis; about 16 kDa product of cleavage at L122 in the cytoplasmic loop between TM1 and TM2: the rest of that loop to the end of the protein (includes TM2 with Cys134); Two species of about 15 kDa both start at L122; The cause of their different mobility is not known; also called band c; truncated SpoIIIJ monomer (lacking TM1); source: E. coli C43(DE3), proteolytic product …
- binding: no binding
